One data set deals with RPS3 (Homo sapiens) (UniProt P23396). The experiment in a line: protein domain microarray probed with biotinylated miRNA. Particulars: Domain array: 20 mM Tris-HCl pH 7.4, 200 mM KCl, 0.2 mM EDTA, 0.05% NP40, 2 ug/ul heparin, overnight 4 C. ORF array: PBS pH 7.0 with RNase inhibitor, 100 ng RNA, 1 h.; high values mean tight binding; recombinant protein; protein details: N-terminal GST; letters put together from the description; counted as no binding.

By UniProt entry, the sequences of proteins in these tests, tags left out. Where a name states a change or a piece, a line headed by the entry shows the natural chain unless it says otherwise.
UniProt P0CB38: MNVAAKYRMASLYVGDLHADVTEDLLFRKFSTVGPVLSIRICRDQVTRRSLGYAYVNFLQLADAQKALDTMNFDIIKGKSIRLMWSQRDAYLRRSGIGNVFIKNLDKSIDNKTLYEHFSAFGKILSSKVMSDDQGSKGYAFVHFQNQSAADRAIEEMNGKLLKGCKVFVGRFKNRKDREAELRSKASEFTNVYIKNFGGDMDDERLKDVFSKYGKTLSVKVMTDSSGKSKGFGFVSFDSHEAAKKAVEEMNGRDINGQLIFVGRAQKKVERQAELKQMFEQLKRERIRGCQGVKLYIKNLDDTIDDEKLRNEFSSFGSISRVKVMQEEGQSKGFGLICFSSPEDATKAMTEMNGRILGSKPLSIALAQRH
UniProt Q9Y3B4: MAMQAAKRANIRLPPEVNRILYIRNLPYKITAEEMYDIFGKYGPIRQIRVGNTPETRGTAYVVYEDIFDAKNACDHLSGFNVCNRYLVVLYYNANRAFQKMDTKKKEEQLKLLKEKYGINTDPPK

The target of a further data set is PABPC4L (Homo sapiens) (UniProt P0CB38). The data set is described as above. The settings on record: Domain array: 20 mM Tris-HCl pH 7.4, 200 mM KCl, 0.2 mM EDTA, 0.05% NP40, 2 ug/ul heparin, overnight 4 C. ORF array: PBS pH 7.0 with RNase inhibitor, 100 ng RNA, 1 h.; high values mean tight binding; recombinant protein; protein details: N-terminal GST; letters put together from the description; counted as no binding.

A further data set has as its target YTHDC1 (Homo sapiens) (UniProt Q96MU7). The data set is described as above. Particulars: Domain array: 20 mM Tris-HCl pH 7.4, 200 mM KCl, 0.2 mM EDTA, 0.05% NP40, 2 ug/ul heparin, overnight 4 C. ORF array: PBS pH 7.0 with RNase inhibitor, 100 ng RNA, 1 h.; high values mean tight binding; recombinant protein; protein details: N-terminal GST; letters put together from the description; counted as no binding.

Another data set addresses SF3B6 (Homo sapiens) (UniProt Q9Y3B4). The description is as above. Particulars: Domain array: 20 mM Tris-HCl pH 7.4, 200 mM KCl, 0.2 mM EDTA, 0.05% NP40, 2 ug/ul heparin, overnight 4 C. ORF array: PBS pH 7.0 with RNase inhibitor, 100 ng RNA, 1 h.; high values mean tight binding; recombinant protein; protein details: N-terminal GST; letters put together from the description; counted as no binding.

Data set [1] concerns QKI (recombinant His-QKI). The data set is described as follows: fluorescence polarization. The settings on record: 2 mM Mg2+; FP: 20 mM HEPES pH 7.4, 150 mM NaCl, 2 mM MgCl2, 1 U/ul RiboLock, 10 mM DTT, 3 nM Cy3-RNA, 5 min, room temperature; recombinant protein; protein details: 6xHis; label: 3' Cy3. In general terms: In fluorescence polarisation assays a small probe gives low polarisation when free and higher when bound to something large.

Data set [2] relates to QKI (recombinant His-QKI). The data set is described as follows: UV cross-linking, SDS-PAGE mobility shift, anti-His blot. The settings on record: 23 or 230 nM QKI; domain array: 20 mM Tris-HCl pH 7.4, 200 mM KCl, 0.2 mM EDTA, 0.05% NP40, 2 ug/ul heparin, 4 C overnight; ORF array: PBS pH 7.0, 1 h; recombinant protein; protein details: 6xHis.

For some assays here: Construct, isoform or probe ends are uncertain for at least one entry. For some assays here: Negatives hold for the conditions tested.

With “AGAGGUAGUAGGUUGCAUAGUU [let-7d biotin/Cy3]”, the binding signal (fluorescence intensity) with RPS3 (Homo sapiens) came to 12.1.

In the case of “CAGUGCAAUGAUGAAAGGGCAU [miR-130b biotin/Cy3]”, in the data set with RPS3 (Homo sapiens), the binding signal (fluorescence intensity) was 13.4.

Regarding “UAGCUUAUCAGACUGAUGUUGA [miR-21 biotin/Cy3]”, the binding signal (fluorescence intensity) with RPS3 (Homo sapiens) was 8.3; with PABPC4L (Homo sapiens), 19.2; in the data set with YTHDC1 (Homo sapiens) it was 15.1; with SF3B6 (Homo sapiens), 18.6.

Turning to “UGAGGUAGUAGGUUGCCAUUAU [mutant let-7b-Cy3]”, the binding result in data set [1] was “no binding”.

With “UGAGGUAGUAGGUUGUAUAGUU [let-7a biotin/Cy3]”, the binding signal (fluorescence intensity) in the data set with RPS3 (Homo sapiens) stood at 9.21.

As to “UGAGGUAGUAGGUUGUAUGGUU [let-7c biotin/Cy3]”, in the data set with RPS3 (Homo sapiens), the binding signal (fluorescence intensity) worked out at 10.7.

Turning to “UGAGGUAGUAGGUUGUGUGGUU [let-7b (mobility shift)]”, the binding result in data set [2] is “binds”.

Turning to “UGAGGUAGUAGGUUGUGUGGUU [let-7b biotin/Cy3]”, the binding signal (fluorescence intensity) with RPS3 (Homo sapiens) turned out to be 14.8.
